# Results are given in words; binding and its absence hold for the method and conditions named. In cells and extracts the contact can be indirect. These calls come from enrichment with a bait or labelling near it, and not all partners need be listed. For part of these data: Tags and fused reporters may be left off the sequences shown.
# Chains of the proteins cited; added tags and fusions are not shown.
# UniProt P25823: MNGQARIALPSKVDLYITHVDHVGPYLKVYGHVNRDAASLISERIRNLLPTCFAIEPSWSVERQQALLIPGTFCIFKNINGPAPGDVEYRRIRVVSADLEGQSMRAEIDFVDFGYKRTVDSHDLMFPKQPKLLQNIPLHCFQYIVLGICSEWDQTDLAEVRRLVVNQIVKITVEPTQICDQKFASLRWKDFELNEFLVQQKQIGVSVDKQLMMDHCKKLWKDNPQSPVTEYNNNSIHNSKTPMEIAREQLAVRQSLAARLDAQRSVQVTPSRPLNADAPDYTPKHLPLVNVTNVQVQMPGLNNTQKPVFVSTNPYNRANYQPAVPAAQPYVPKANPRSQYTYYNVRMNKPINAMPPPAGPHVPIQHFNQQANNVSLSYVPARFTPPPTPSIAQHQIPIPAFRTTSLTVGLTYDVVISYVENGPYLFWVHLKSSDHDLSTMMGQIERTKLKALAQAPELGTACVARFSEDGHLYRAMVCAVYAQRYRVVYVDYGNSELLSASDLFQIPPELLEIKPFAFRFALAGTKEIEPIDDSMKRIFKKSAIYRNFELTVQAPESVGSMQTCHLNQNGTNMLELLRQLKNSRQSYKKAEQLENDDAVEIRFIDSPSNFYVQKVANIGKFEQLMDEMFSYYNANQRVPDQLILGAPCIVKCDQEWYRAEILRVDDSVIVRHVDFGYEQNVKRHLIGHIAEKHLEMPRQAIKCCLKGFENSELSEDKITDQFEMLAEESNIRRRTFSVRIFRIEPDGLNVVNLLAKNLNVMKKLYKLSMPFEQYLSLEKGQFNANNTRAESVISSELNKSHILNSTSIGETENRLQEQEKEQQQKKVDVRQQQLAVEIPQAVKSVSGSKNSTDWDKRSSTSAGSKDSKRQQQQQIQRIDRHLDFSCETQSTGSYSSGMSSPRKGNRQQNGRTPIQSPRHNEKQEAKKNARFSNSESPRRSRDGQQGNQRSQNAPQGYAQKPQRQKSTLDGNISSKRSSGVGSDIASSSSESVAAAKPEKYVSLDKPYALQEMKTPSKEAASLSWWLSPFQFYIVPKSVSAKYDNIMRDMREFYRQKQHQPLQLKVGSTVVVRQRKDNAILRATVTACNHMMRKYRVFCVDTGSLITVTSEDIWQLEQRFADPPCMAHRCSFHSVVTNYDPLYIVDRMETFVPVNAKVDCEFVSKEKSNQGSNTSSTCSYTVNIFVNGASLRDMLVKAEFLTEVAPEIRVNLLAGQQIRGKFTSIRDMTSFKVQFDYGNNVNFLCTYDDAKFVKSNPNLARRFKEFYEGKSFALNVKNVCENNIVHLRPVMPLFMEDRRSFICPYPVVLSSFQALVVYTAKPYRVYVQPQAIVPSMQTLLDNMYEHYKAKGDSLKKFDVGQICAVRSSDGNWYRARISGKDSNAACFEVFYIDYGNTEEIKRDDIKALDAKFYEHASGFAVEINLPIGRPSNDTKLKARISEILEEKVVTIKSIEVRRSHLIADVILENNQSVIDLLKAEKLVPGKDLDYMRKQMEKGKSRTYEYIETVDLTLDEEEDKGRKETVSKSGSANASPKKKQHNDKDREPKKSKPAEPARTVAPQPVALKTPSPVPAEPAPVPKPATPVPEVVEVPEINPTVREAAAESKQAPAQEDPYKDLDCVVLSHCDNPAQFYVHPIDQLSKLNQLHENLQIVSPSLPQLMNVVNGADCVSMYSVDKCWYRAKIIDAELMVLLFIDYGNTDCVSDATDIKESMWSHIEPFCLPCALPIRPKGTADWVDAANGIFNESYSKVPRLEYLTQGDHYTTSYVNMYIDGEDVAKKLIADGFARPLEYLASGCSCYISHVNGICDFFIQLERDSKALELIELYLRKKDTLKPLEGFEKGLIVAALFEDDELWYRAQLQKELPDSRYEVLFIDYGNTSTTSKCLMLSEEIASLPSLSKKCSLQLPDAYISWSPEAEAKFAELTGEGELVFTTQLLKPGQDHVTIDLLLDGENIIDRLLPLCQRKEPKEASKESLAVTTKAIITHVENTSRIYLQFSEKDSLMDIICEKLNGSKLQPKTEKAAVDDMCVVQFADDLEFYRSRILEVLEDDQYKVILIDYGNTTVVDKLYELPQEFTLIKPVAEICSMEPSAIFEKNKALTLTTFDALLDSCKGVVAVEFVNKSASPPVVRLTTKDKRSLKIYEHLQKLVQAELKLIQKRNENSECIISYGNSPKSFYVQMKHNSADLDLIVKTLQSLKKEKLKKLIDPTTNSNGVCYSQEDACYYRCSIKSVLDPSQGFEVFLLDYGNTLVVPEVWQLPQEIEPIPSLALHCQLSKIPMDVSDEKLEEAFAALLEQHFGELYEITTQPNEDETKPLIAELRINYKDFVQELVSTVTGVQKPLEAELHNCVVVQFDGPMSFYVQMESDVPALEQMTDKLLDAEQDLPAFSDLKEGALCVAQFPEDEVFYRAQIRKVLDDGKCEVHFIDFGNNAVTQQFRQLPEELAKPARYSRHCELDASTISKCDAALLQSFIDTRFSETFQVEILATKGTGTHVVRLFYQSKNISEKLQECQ
# UniProt Q27268: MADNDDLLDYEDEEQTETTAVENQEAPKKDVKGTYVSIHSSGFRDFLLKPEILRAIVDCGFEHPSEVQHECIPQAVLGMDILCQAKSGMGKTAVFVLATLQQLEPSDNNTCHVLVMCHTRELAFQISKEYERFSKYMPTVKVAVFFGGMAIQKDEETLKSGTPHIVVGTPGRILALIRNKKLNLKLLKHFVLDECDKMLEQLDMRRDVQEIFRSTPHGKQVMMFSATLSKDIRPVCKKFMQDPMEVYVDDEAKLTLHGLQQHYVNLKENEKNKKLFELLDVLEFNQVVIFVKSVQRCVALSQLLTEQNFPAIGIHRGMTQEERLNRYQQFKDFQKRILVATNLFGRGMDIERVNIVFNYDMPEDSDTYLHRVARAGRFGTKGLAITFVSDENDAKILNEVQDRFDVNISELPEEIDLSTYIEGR
# T1: Klp10A (Drosophila melanogaster (endogenous in testes)) (UniProt Q960Z0)
# T1 sequence: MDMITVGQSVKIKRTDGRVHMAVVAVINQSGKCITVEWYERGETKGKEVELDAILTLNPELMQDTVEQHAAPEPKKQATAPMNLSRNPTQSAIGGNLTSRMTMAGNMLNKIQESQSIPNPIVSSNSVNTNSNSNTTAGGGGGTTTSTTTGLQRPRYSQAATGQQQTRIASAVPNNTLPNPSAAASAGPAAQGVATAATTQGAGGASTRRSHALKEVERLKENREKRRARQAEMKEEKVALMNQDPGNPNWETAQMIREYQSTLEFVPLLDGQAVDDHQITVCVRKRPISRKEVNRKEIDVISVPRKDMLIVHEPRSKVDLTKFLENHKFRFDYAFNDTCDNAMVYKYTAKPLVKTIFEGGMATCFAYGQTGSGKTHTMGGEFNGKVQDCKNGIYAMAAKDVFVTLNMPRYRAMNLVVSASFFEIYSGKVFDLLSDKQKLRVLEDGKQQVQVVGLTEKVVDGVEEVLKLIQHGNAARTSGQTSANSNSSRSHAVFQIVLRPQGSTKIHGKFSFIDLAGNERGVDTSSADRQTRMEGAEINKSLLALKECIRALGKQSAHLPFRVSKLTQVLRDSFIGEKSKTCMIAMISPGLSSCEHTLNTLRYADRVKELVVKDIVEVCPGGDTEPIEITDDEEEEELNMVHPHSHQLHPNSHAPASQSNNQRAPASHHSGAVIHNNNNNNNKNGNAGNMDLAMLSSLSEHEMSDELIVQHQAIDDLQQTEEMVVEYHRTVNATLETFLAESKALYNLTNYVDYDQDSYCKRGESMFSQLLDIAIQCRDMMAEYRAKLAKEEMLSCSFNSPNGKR
# T2: GFP-Klp10A (Drosophila melanogaster) (UniProt Q960Z0)
# T2 sequence: T1 sequence
# B1: Piwi (protein, UniProt Q9VKM1 1-843)
# chain: MADDQGRGRRRPLNEDDSSTSRGSGDGPRVKVFRGSSSGDPRADPRIEASRERRALEEAPRREGGPTERKPWGDQYDYLNTRPAELVSKKGTDGVPVMLQTNFFRLKTKPEWRIVHYHVEFEPSIENPRVRMGVLSNHANLLGSGYLFDGLQLFTTRKFEQEITVLSGKSKLDIEYKISIKFVGFISCAEPRFLQVLNLILRRSMKGLNLELVGRNLFDPRAKIEIREFKMELWPGYETSIRQHEKDILLGTEITHKVMRTETIYDIMRRCSHNPARHQDEVRVNVLDLIVLTDYNNRTYRINDVDFGQTPKSTFSCKGRDISFVEYYLTKYNIRIRDHNQPLLISKNRDKALKTNASELVVLIPELCRVTGLNAEMRSNFQLMRAMSSYTRMNPKQRTDRLRAFNHRLQNTPESVKVLRDWNMELDKNVTEVQGRIIGQQNIVFHNGKVPAGENADWQRHFRDQRMLTTPSDGLDRWAVIAPQRNSHELRTLLDSLYRAASGMGLRIRSPQEFIIYDDRTGTYVRAMDDCVRSDPKLILCLVPNDNAERYSSIKKRGYVDRAVPTQVVTLKTTKNRSLMSIATKIAIQLNCKLGYTPWMIELPLSGLMTIGFDIAKSTRDRKRAYGALIASMDLQQNSTYFSTVTECSAFDVLANTLWPMIAKALRQYQHEHRKLPSRIVFYRDGVSSGSLKQLFEFEVKDIIEKLKTEYARVQLSPPQLAYIVVTRSMNTRFFLNGQNPPPGTIVDDVITLPERYDFYLVSQQVRQGTVSPTSYNVLYSSMGLSPEKMQKLTYKMCHLYYNWSGTTRVPAVCQYAKKLATLVGTNLHSIPQNALEKKFYYL
# B2: Shutdown (protein, UniProt Q9W1I9 1-455)
# chain: MEENFEPYTPQLLKNPLSYSDLVKKGVEFEVDNSQQNHARDLGLDSDSDSDYEDALDVDGEELRSPWTYSFDELRALMSEIDENIYKRITRTGHVDREAVPNKARVSVRYSGYWEGETAPFDSSLLRGSKFVFETGQGTVVEGLEVAVRSMRPYEQAEFIISYKLLFGELGCPPRIKPKADALFKVEVIDYSLIGDAKGIDAIPQEDRDKFCVVYPKAVDLHLHGKDSVKLGRYQSAATAFERAVSSLNYCRMANDEEERKQTELLTTLNQNLMIVYNKMNKPKRACIMMKALRHLTMGNPSCKALFQEGRALAALGEYNLARNAYLQAQAKQPANKEISDEIISMNKRISKYEEASRDIWARAFSLKNSKSDVRKTPAQLEKEAKEQDFNDKMEDLIRRFKNTSDQQVSFSRKSYSNAQFDATCKLAKEHNLKLTLSPIQEDVLTLSKPDVKFA
# B3: Vrento (protein, UniProt Q9VCU7 1-691)
# chain: MESESSQDDWSAFDPMSREYYDQVGNRYTNESGQKLIMEAPLPPKDEKEQRATRQAKYPYLVVPKSSPYVTEKMLINFFGRALIKEMEFRRLSRVYFVYFENIASLETAQQRVQRYPNLIKCITGRPQKEREITSDPVTSTEPMPTPGPAISATERTPVNHNREVPISTGGQNHPEFFRPPLVTKDDYKRGSLLATNDPIQRYLNVKYEFALERHDIYKLKDETRIPQVVLHFRSGRTIPLSTVAVTEEDKTKSLLEDGVSKCVVCQNWTDTFCKLCKMPFCNASCFADVAEQHKQACGKGEILNLDEKVGRKYPKPGLPPSGSKVRITAFEQTNVVYVRSADIQIDIAYYTVLTEVMMLGKDASKLQSTPVCGQIVLYKFEGHMSRAMVLNVDNIKEIYVVFIDFGSVEVTQLERLYECSSYLAGLTCYPVAVKLRGVPRRFVGPNIREVMYELDQSLVFNIKYSSREYDTSKGMQVVVMTEIDINRSLNRLFKTILTPVEPSVSDLGYKEDCLPYIPLHCGKNINVVVMDNTFIQCGFIYCTSIDLAYEVTKMQRDIQEYGEKIAKCATYAPPINELCIAKYEGKWRRGLSVELVGDGYPSILFIDYGNIVPTHVTDIRPYPPQFIFPIMTTQLDLIGVPEKPTDEQIKWLDKNYPIGSVITCSEITFDEETNSYSTRIEKLQEFLSLD
# B4: Krimper (protein, UniProt A1ZAC4 1-746)
# chain: MNLEDISMIMKLFDSNMHKLQGNLRSYQTEMHQIHKELTEKLSHADLLYRSLIPLHDHLVASLSEVNAHVMKLNVQLHINRQSVRLGDYEYYEKSIDNPYSSIRSGLQAIEKPGCAEAICQSSKPAFVECLPSSTSEEVPVVAVQEASSTNQLDAISVVNENLSEERDATPQPLAVSKNMEETMPSNPFHEQLEGSLEEIPVGSKIVVETEKANNPVRSEASAPATSDNQSLLAAKQGTQTIGTGICNKISKSTINMPNNWQLENPTEVTAASIEKVNKLPKSPRNRFLLPPKGGTETTRRDIYNQILKDMAAFPENTIVTAVLASVDVTDNCAYVAKWDESSDRIKKVLQRQLPLQELDQLPDYGDIFAVLDSINNIITRITINSSSAGGGYDAYLIDFGEHIHFDGNETIFKLPDDIKRLPAQAIRCDLINCDIANMHCFVNTYIKIRVHENNNSTLVAEPVIDRLSRPTKTNTTKYPAGITEDDMAMLNEIDESTSDPLKAVLGFRPKDEQRICRHYDPKLNGCFKGNNCRFAHEPFAPNGATKDVELARALPETIFDTTVHFEIGSIVGILITFINGPTEVYGQFLDGSPPLVWDKKDVPENKRTFKSKPRLLDIVLALYSDGCFYRAQIIDEFPSEYMIFYVDYGNTEFVPLSCLAPCENVDSFKPHRVFSFHIEGIVRSKNLTHQKTIECIEYLKSKLLNTEMNVHLVQRLPDGFLIRFLDDWKYIPEQLLQRNYAQVSQ
# B5: Argonaute 3 (protein, UniProt Q7PLK0 1-867)
# chain: MSGRGNLLSLFNKNAGNMGKSISSKDHEIDSGLDFNNSESSGERLLSSHNIETDLITTLQHVNISVGRGRARLIDTLKTDDHTSNQFITSESKENITKKTKGPESEAIASENGLFFPDLIYGSKGSSVNIYCNYLKLTTDESKGVFNYEVRFFPPIDSVHLRIKYLNDHKDKLGGTKTFDGNTLYLPILLPNKMTVFISKAEDVELQIRILYKKKEEMRNCTQLYNILFDRVMKVLNYVKFDRKQFDPSRPKIIPLAKLEVWPGYVTAVDEYKGGLMLCCDVSHRILCQKTVLEMLVDLYQQNVEHYQESARKMLVGNIVLTRYNNRTYKINDICFDQNPTCQFEIKTGCTSYVEYYKQYHNINIKDVNQPLIYSIKKSRGIPAERENLQFCLIPELCYLTGLRDEVRSDNKLMREIATFTRVSPNQRQMALNKFYENVSNTPAAQEILNSWGLSLTNNSNKISGRQMDIEQIYFSKISVSAGRSAEFSKHAVTNEMLKVVHLSKWIIIHLRNYRQAATSLLDNMKQACESLGMNISNPTMISLDHDRIDAYIQALRRNITMNTQMVVCICHNRRDDRYAAIKKICCSEIPIPSQVINAKTLQNDLKIRSVVQKIVLQMNCKLGGSLWTVKIPFKNVMICGIDSYHDPSNRGNSVAAFVASINSSYSQWYSKAVVQTKREEIVNGLSASFEIALKMYRKRNGKLPTNIIIYRDGIGDGQLYTCLNYEIPQFEMVCGNRIKISYIVVQKRINTRIFSGSGIHLENPLPGTVVDQHITKSNMYDFFLVSQLVRQGTVTPTHYVVLRDDCNYGPDIIQKLSYKLCFLYYNWAGTVRIPACCMYAHKLAYLIGQSIQRDVAEALSEKLFYL
# B6: Papi (protein, UniProt Q9VQ91 1-576)
# chain: MLRNTPFGATPTYKLLLGFGLCSLGGAMLYAYFKTRNDEEEADSGGQRPASGIRGQTEEQKPQKEVCLKIVVDNEHVPLIMGRGGSNIKLIEEKTLAKIRLRDKDSGHKFCDISGVPDAVKAARALLIKEIERAPVVKVELQVPQRLASKINGRGGELLQEIRSSSLAKLNIDLNGRNGKAKITIIGNQKQVNIARKMLDDQIEEDEELVRSMEEVEQRREPRRSPTNSIASSMYSSQTSLSSHTQPRDKLMASKGEGKPMEVYVSAVASPTKFWVQLIGPQSKKLDSMVQEMTSYYSSAENRAKHVLTAPYVGQIVAAVFKFDEKWYRAEIVDIMPNQYNPKEQVIDLYFVDYGDSEYISPADICELRTDFLTLRFQAVECFLANVKSTIQTEPITWPKSSIAKFEELTEVAHWRKLIARVVTYKERPRATTAVSAAAKEGTPLPGVELFDPADNSELNIADLMITQGFALPLDDSYPVRSRSSTPSSNSDSTIEELCVSNPVTPLTPHSPMSMSIDVDSITQAENEHLAQQLQHLQHKLNGNDIKNINPAKLTATDLENGNNNNASTTNGASAH
# B7: Maelstrom (protein, UniProt Q9VNS0 1-459)
# chain: MAPKKHSGFMMFVNEWRNRNAEGRRMTLAQAVSHCGTIWEKMNTQQRGPYNSGGKDANVAQRAKRESSNGHGQVDKAQREATESLMDMKRTIERLVLNAKMSHDLENAKFVFVAFNYFTKALTTDVYVPAEFAACEYSLKEGIRSIYSTMIDPGQIIFGQGSDALLHSSTTHDLPLPPNALGEKNMTKLYRNIVDYLSKCQGKGKTLVVFTPAENITMVKSCFRYLECDDDFRDGGEKIQVFDIQYLLFILKKEVMNVADLNDEKINKFATDAFFKKDFFEFTAGIACQYHEDNDRTKYCTQSMVTRWAYTFTDFMCGDLAITVQPGKHIPAQTKPNYLIISSYASSLDHESSFDSFYSLPGSGVKKESQPEACSLSSSRLSVASSSYKPIDHTSFAANLNEVSEFPSLGMRNSSKHHGIAASAQREWNARNLPTHSRLIRKVSDNDFSVNGADGKLKK
# Key:
# [1] = molecular target: T1, Klp10A (Drosophila melanogaster (endogenous in testes)); assay: affinity purification with mass spectrometry; guinea-pig anti-Klp10A on Protein A-Dynabeads; 250 pairs of nos-gal4>UAS-upd testes; 10 mM Tris-HCl pH 7.5, 150 mM NaCl, 0.5 mM EDTA, 0.1% NP40; control pre-immune IgG; two experiments; LC/MS/MS
# [2] = molecular target: T1, Klp10A (Drosophila melanogaster (endogenous in testes)); assay: affinity purification with mass spectrometry; anti-Klp10A pull down from Dpp testis (nos>dpp, SG tumor); two experiments; LC/MS/MS
# [3] = molecular target: T2, GFP-Klp10A (Drosophila melanogaster); assay: affinity purification with mass spectrometry; GFP-Trap agarose beads on GFP-Klp10A; 1500 pairs of nos-gal4>UAS-upd, UAS-gfp-klp10A testes; 10 mM Tris-HCl pH 7.5, 150 mM NaCl, 0.5 mM EDTA, 0.1% NP40; control GFP from Upd testis; LC-MS/MS
molecule,measurement,setting,value
Hsp90,binding,[1],binds
same,binding,[2],binds
Tudor (from UniProt P25823 1-2515),binding,[1],binds
same,binding,[3],binds
same,binding,[2],binds
UAP56 (from UniProt Q27268 1-424),binding,[1],binds
same,binding,[2],binds
Qin,binding,[1],binds
same,binding,[2],binds
Tapas,binding,[1],binds
same,binding,[2],binds
B1,binding,[1],binds
same,binding,[3],binds
same,binding,[2],binds
B2,binding,[3],binds
B3,binding,[3],binds
B4,binding,[3],binds
B5,binding,[1],binds
same,binding,[2],binds
B6,binding,[1],binds
B7,binding,[2],binds
